Test results reported in PubChem BioAssay AID188 (DTP/NCI, 2004).
Shown are survivors of the treated group in tumour-free mice. Counts of survivors are from the toxicity check (mostly the fifth day) where no day follows; animals may have died later. Schedule codes are those of the source, taken here to give the interval after Q, in days (D) or hours (H), and the number of doses after X. Some doses were run more than once; their values stand side by side, smallest first.

Test system: CD2F1 mice, nontumored, toxicity/survival
Assay: NCI In Vivo Anticancer Drug Screen. Data for tumor model Nontumored Animals (Toxicity Test) in CD2F1 (CDF1) mice
Conditions: vehicle: saline

In the case of [N-]=[N+]=CC(=O)CCC(N)C(=O)O (configuration not stated), the survivor count (dose: 0.03 mg/kg/injection, schedule: Q01DX009 (ip)) was 8 of 8, the survivor count (dose: 0.05 mg/kg/injection, schedule: Q01DX009 (ip)) was 10 of 10, 4 of 4, 8 of 8 and the survivor count (dose: 0.05 mg/kg/injection, schedule: Q01DX009 (oral)) was 8 of 8. For the same molecule, the survivor count (dose: 0.05 mg/kg/injection, schedule: Q01DX009 (sc)) was 8 of 8, the survivor count (dose: 0.06 mg/kg/injection, schedule: Q01DX009 (ip)) was 4 of 4 and the survivor count (dose: 0.1 mg/kg/injection, schedule: Q01DX009 (ip)) was 10 of 10, 4 of 4, 8 of 8. The survivor count (dose: 0.1 mg/kg/injection, schedule: Q01DX009 (oral)) was 8 of 8, the survivor count (dose: 0.1 mg/kg/injection, schedule: Q01DX009 (sc)) was 8 of 8 and the survivor count (dose: 0.13 mg/kg/injection, schedule: Q01DX009 (ip)) was 4 of 4. The survivor count (dose: 0.2 mg/kg/injection, schedule: Q01DX009 (ip)) was 10 of 10, 4 of 4, 8 of 8, the survivor count (dose: 0.2 mg/kg/injection, schedule: Q01DX009 (oral)) was 8 of 8 and the survivor count (dose: 0.2 mg/kg/injection, schedule: Q01DX009 (sc)) was 8 of 8. The survivor count (dose: 0.25 mg/kg/injection, schedule: Q01DX009 (ip)) was 4 of 4, the survivor count (dose: 0.4 mg/kg/injection, schedule: Q01DX009 (ip)) was 10 of 10, 4 of 4, 8 of 8 and the survivor count (dose: 0.4 mg/kg/injection, schedule: Q01DX009 (oral)) was 8 of 8. The survivor count (dose: 0.4 mg/kg/injection, schedule: Q01DX009 (sc)) was 8 of 8, the survivor count (dose: 0.4 mg/kg/injection, schedule: Q03HX024 (ip)) was 8 of 8 and the survivor count (dose: 0.5 mg/kg/injection, schedule: Q01DX009 (ip)) was 4 of 4. For the same molecule, the survivor count (dose: 0.63 mg/kg/injection, schedule: Q04DX003 (ip)) was 8 of 8, the survivor count (dose: 0.8 mg/kg/injection, schedule: Q01DX009 (oral)) was 8 of 8 and the survivor count (dose: 0.8 mg/kg/injection, schedule: Q01DX009 (sc)) was 8 of 8. For the same molecule, the survivor count (dose: 0.8 mg/kg/injection, schedule: Q03HX016 (ip)) was 8 of 8, the survivor count (dose: 0.8 mg/kg/injection, schedule: Q03HX024 (ip)) was 8 of 8 and the survivor count (dose: 1.25 mg/kg/injection, schedule: Q04DX003 (ip)) was 8 of 8. The survivor count (dose: 1.6 mg/kg/injection, schedule: Q03HX008 (ip)) was 8 of 8, the survivor count (dose: 1.6 mg/kg/injection, schedule: Q03HX016 (ip)) was 8 of 8 and the survivor count (dose: 1.6 mg/kg/injection, schedule: Q03HX024 (ip)) was 7 of 8. The survivor count (dose: 2.5 mg/kg/injection, schedule: Q04DX003 (ip)) was 8 of 8, the survivor count (dose: 3.1 mg/kg/injection, schedule: Q03HX008 (ip)) was 7 of 8 and the survivor count (dose: 3.1 mg/kg/injection, schedule: Q03HX016 (ip)) was 7 of 8. For the same molecule, the survivor count (dose: 3.1 mg/kg/injection, schedule: Q03HX024 (ip)) was 8 of 8, the survivor count (dose: 3.1 mg/kg/injection, schedule: Q04DX003 (ip)) was 8 of 8 and the survivor count (dose: 5.0 mg/kg/injection, schedule: Q04DX003 (ip)) was 8 of 8. The survivor count (dose: 6.2 mg/kg/injection, schedule: Q03HX024 (ip)) was 7 of 8, the survivor count (dose: 6.25 mg/kg/injection, schedule: Q03HX008 (ip)) was 7 of 8 and the survivor count (dose: 6.25 mg/kg/injection, schedule: Q03HX016 (ip)) was 4 of 8. For the same molecule, the survivor count (dose: 6.25 mg/kg/injection, schedule: Q04DX003 (ip)) was 8 of 8, the survivor count (dose: 6.25 mg/kg/injection, schedule: Q08DX002 (ip)) was 8 of 8 and the survivor count (dose: 10.0 mg/kg/injection, schedule: Q04DX003 (ip)) was 8 of 8. For the same molecule, the survivor count (dose: 12.5 mg/kg/injection, schedule: Q01DX001 (ip)) was 8 of 8, the survivor count (dose: 12.5 mg/kg/injection, schedule: Q01DX001 (sc)) was 8 of 8 and the survivor count (dose: 12.5 mg/kg/injection, schedule: Q03HX008 (ip)) was 7 of 8. For the same molecule, the survivor count (dose: 12.5 mg/kg/injection, schedule: Q03HX016 (ip)) was 6 of 8, the survivor count (dose: 12.5 mg/kg/injection, schedule: Q04DX003 (ip)) was 8 of 8 and the survivor count (dose: 12.5 mg/kg/injection, schedule: Q08DX002 (ip)) was 8 of 8. For the same molecule, the survivor count (dose: 20.0 mg/kg/injection, schedule: Q04DX003 (ip)) was 8 of 8, the survivor count (dose: 25.0 mg/kg/injection, schedule: Q01DX001 (ip)) was 8 of 8 and the survivor count (dose: 25.0 mg/kg/injection, schedule: Q01DX001 (oral)) was 8 of 8. The survivor count (dose: 25.0 mg/kg/injection, schedule: Q01DX001 (sc)) was 8 of 8, the survivor count (dose: 25.0 mg/kg/injection, schedule: Q03HX008 (ip)) was 5 of 8 and the survivor count (dose: 25.0 mg/kg/injection, schedule: Q04DX003 (ip)) was 8 of 8. For the same molecule, the survivor count (dose: 25.0 mg/kg/injection, schedule: Q08DX002 (ip)) was 8 of 8, the survivor count (dose: 40.0 mg/kg/injection, schedule: Q04DX003 (ip)) was 8 of 8 and the survivor count (dose: 50.0 mg/kg/injection, schedule: Q01DX001 (ip)) was 8 of 8. For the same molecule, the survivor count (dose: 50.0 mg/kg/injection, schedule: Q01DX001 (oral)) was 8 of 8, the survivor count (dose: 50.0 mg/kg/injection, schedule: Q01DX001 (sc)) was 8 of 8 and the survivor count (dose: 50.0 mg/kg/injection, schedule: Q04DX003 (ip)) was 8 of 8. For the same molecule, the survivor count (dose: 50.0 mg/kg/injection, schedule: Q08DX002 (ip)) was 8 of 8, the survivor count (dose: 80.0 mg/kg/injection, schedule: Q04DX003 (ip)) was 8 of 8 and the survivor count (dose: 100.0 mg/kg/injection, schedule: Q01DX001 (ip)) was 8 of 8. The survivor count (dose: 100.0 mg/kg/injection, schedule: Q01DX001 (oral)) was 8 of 8, the survivor count (dose: 100.0 mg/kg/injection, schedule: Q01DX001 (sc)) was 8 of 8 and the survivor count (dose: 100.0 mg/kg/injection, schedule: Q08DX002 (ip)) was 8 of 8. For the same molecule, the survivor count (dose: 200.0 mg/kg/injection, schedule: Q01DX001 (ip)) was 8 of 8, the survivor count (dose: 200.0 mg/kg/injection, schedule: Q01DX001 (oral)) was 8 of 8 and the survivor count (dose: 200.0 mg/kg/injection, schedule: Q01DX001 (sc)) was 8 of 8. The survivor count (dose: 400.0 mg/kg/injection, schedule: Q01DX001 (oral)) was 8 of 8.
